Assay [1] has as its target T1, Satb2 (mouse (endogenous in P1 cortex)) (UniProt Q8VI24).
T1 sequence: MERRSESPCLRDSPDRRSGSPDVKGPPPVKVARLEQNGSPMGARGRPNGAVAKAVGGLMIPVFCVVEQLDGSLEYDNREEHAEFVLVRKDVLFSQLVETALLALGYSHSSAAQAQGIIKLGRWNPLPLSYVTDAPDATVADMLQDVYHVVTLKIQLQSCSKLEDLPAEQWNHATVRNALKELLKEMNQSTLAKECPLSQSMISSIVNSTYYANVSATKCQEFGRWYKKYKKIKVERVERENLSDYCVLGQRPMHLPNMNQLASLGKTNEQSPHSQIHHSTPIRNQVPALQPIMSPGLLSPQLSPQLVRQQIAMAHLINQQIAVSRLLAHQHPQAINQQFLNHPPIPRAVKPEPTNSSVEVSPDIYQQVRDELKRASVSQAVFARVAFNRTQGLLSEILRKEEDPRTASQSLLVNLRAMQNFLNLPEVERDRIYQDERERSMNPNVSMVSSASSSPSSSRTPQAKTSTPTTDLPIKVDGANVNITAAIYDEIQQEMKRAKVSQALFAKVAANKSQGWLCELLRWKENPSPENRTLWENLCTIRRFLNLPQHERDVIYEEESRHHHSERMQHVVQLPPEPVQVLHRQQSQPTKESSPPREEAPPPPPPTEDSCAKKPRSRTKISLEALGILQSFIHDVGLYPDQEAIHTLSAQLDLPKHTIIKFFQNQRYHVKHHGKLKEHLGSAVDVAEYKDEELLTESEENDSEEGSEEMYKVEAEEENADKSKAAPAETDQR
Kind of assay: co-IP; nuclear extracts (NE-PER kit) of P1 control and Nr2f1 CKO mouse cortices, dialysed against buffer D (20% glycerol, 20 mM HEPES pH 7.9, 100 mM KCl, 0.2 mM EDTA, 0.5 mM DTT); precipitated with anti-Lmo4 or anti-Satb2 (anti-BrdU as control) on Protein A Sepharose; Western blot for Hdac1, Ski or Satb2. Background: Immunoblotting shows a protein as a band on a membrane.

Chains of the proteins cited; added tags and fusions are not shown.
UniProt O09106: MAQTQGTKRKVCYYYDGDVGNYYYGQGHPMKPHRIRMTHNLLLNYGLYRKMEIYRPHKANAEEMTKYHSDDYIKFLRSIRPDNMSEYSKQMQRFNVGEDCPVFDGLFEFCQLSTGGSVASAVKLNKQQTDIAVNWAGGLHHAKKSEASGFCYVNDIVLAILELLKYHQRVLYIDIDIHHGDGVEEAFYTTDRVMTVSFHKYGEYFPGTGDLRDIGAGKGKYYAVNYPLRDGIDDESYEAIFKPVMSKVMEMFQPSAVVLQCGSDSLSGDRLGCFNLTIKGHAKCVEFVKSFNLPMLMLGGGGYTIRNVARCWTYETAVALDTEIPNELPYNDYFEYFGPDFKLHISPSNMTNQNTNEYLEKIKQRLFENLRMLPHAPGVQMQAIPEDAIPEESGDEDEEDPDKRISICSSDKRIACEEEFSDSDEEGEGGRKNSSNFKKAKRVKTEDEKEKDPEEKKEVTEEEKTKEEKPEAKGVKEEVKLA

Assay [2] addresses T2, Lmo4 (mouse (endogenous in P1 cortex)) (UniProt P61969).
T2 sequence: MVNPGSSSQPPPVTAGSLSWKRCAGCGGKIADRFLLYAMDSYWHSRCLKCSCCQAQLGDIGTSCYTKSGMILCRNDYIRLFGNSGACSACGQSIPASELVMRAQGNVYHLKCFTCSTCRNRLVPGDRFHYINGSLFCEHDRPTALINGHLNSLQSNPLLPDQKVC
The assay is described as above.

Drawing on article PMC4744182, this text covers binding for one substance.

No constants are given. Whether binding was seen depends on the method and setting. Binding seen in cells or lysates may run through a third protein. Some results given as binding are weak or reduced against the parent protein; the word gives no strength.

For “histone deacetylase 1 (Hdac1) (from UniProt O09106 1-482) (enzyme)”, the binding entry in assay [1] and in assay [2] was “binds” throughout.
